In test [1] the target is advanced glycation end-product (AGE)-modified bovine serum albumin (bovine) (UniProt P02769). Put plainly: SPR (Biacore), tPA immobilized.
Test [2] has the same target. Put plainly: SPR (Biacore), tPA immobilized, albumin-AGE injected at 3.9 µg/ml. In general terms: In SPR one partner is held on a chip, and binding of the other changes the refractive index at the surface.

By UniProt entry, the sequences of proteins in these tests, tags left out. Residues count along the entry.
UniProt P02769, residues 25-607: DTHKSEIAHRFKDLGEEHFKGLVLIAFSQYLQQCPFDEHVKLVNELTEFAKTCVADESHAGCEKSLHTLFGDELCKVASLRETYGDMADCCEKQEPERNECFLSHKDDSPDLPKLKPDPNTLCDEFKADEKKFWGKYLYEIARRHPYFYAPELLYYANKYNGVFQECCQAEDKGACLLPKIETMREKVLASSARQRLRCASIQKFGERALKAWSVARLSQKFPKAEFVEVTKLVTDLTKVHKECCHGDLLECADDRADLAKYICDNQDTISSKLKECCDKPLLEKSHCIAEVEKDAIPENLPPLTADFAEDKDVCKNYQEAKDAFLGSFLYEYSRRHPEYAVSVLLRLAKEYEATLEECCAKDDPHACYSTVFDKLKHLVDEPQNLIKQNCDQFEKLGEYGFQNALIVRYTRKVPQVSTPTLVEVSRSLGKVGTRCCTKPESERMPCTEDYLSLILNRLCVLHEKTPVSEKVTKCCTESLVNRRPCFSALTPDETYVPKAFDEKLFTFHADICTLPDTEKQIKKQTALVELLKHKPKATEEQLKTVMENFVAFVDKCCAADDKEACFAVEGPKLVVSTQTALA
UniProt P00750, residues 36-562: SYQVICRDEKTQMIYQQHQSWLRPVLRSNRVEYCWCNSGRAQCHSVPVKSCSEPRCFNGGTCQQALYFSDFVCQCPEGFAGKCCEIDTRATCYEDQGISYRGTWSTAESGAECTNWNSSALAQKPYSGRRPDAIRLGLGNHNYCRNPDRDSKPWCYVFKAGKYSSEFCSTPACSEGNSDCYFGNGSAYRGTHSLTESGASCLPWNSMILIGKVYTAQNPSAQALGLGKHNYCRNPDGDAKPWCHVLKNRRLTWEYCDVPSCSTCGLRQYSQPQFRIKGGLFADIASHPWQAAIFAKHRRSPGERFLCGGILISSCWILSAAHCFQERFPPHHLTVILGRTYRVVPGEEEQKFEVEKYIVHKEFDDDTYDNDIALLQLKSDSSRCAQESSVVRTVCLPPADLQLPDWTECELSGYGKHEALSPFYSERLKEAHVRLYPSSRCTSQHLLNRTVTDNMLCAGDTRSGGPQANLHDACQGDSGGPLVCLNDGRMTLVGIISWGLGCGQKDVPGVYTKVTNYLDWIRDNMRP

These are yes or no findings as the source states them, for the method shown. Some entries that bind do so weakly or less than the wild type.

Turning to “tissue-type plasminogen activator (tPA) (from UniProt P00750 36-562) (enzyme)”, the binding result in test [1] and in test [2] was “binds” in each case.

Values taken from patent US8114832.
